This is an account of results in patent US12673108B2 (Oxford University Innovation Limited, priority 2021, dated 2026).

A short description of this data set: general procedure: Fmoc solid-phase peptide synthesis; Fmoc-beta-Ala-OH preloaded Wang resin (0.19 or 0.46 mmol g-1); PyBOP/NMM; PyBOP/HOAt/DIPEA (or HBTU) for PMO conjugation. The settings on record: conjugation step, UV-Vis, based on PMO extinction coefficient.

Ac-RBRRBRFQILYRBHBH-(E)-PMO: the conjugation yield was 49%. The figure for Ac-RBRRBRRFQILYRBHBH-(E)-PMO is 27%; for PMO-(E)-RBRRBRRFQILYRBHBH-NH2 it is 48%. With PMO-(Succ)-RBRRBRRFQILYRBHBH-NH2 the figure was 64%.
